According to US20070270431A1, “Preventive and/or Therapeutic Medicine for Rheumatoid Arthritis” (Kowa Co., Ltd., priority 2004, published 2007):
Some of these results come from one statement about several compounds together.

Tested on: rats of a collagen-induced arthritis model
Assay: Suppression of both-hindlimb edema in rats of a collagen-induced arthritis model
Assay type: in vivo, rat
Details: 30 days after initial sensitization; solo administration
Description: The effect on suppressing edema of both hindlimbs by 2-benzyl-5-(4-chlorophenyl)-6-4-(methylthio)phenyl]-2H-pyridazin-3-one (synthesized through the aforementioned method) and methotrexate were determined both in the cases of combined administration and solo administration through the following procedure. For the experiment-rats of a collagen-induced arthritis model were used. (FDA, CBER, CDER, CDRH: Guidance for industry—Clinical development programs for drugs devices and biological products for the treatment of rheumatoid arthritis (RA)-(1999)). Lewis female rats (LFW/Crj) (obtained from Charles River Laboratories Japan, Inc.) were employed as test animals.
For each 8-week-old LEW/Crj rat, the volume of a portion from the ankle to the toe tip of each hindlimb was measured by means of a plethysmometer for small animals (TK-101CMP, product of Unicom) and the total volume was employed as a volume of the hindlimbs (hereinafter referred to as both-hindlimb volume) at the start of the test (hereinafter referred to as Pre value). By use of the Pre value as an index, the rats were divided into groups by one-parameter-based block randomization so that the values in the groups were averaged out. […]
Thirty days after initial sensitization, both-hindlimb volume was measured. Volume of both-hindlimb edema was calculated by subtracting the Pre value from the thus-measured value. […]

CSc1ccc(-c2nn(Cc3ccccc3)c(=O)cc2-c2ccc(Cl)cc2)cc1 [2-benzyl-5-(4-chlorophenyl)-6-[4-(methylthio)phenyl]-2H-pyridazin-3-one]
Edema volume with respect to that of the control group: > 50%
